US20230391772A1, “METHODS AND COMPOSITIONS FOR TARGETED PROTEIN DEGRADATION” (Ranok Therapeutics (Hangzhou) Co. Ltd., priority 2020, published 2023)
The match of structure and compound is tentative.

Assays:
[1] = target: T1, HSP90a protein (Homo sapiens, UniProt P07900); experiment: HSP90α-binding fluorescent polarization (FP) assay, BODIPY-labeled RNK04010 probe; settings: read-out: HSP90a binding (BODIPY); FP competition with RNK04010 (BODIPY-labeled), 5 nM, 300 min at 25° C.
Procedure: (§1) HSP90α-Binding Fluorescent Polarization (FP) Assay
(§2) Binding of test compounds to HSP90a protein was measured by fluorescent polarization (FP) using the HSP90a (N-terminal) Assay Kit (BPS Bioscience, #50298), following the manufacturer's instructions, except as noted. Fluorescently labeled HSP90-binding compounds, either the provided FITC-geldanamycin (5 nM final concentration) or RNK04010, a triazolone-based HSP90 binding small molecule labeled with BODIPY through a piperizine-phenyl linker (5 nM final concentration) were employed. A 2.5-fold serial dilution of each test compound ranging from 20 μM to 5.2 nM was assayed for binding to HSP90a. After the final step of adding HSP90a protein to each assay well, plates were mixed by brief shaking, incubated at 25° C. for 120 min for FITC-geldanamycin or 300 min for RNK04010, and fluorescence was measured using a PerkinElmer EnVision Plate Reader. Background-subtracted mP values were calculated from raw data and a four-parameter “log[inhibitor] vs. response” curve was fitted and IC50 values (the concentration at which 50% of the maximal inhibition occurs) calculated using GraphPad Prism 7 software.

[2] = system: NCI-H358 human non-small cell lung cancer; experiment: NCI-H358 CCK-8 proliferation assay; settings: read-out: NCI-H358 CCK-8; NCI-H358 cells, 72 hr
Procedure: The following cancer cell lines were employed: BT-474 human breast carcinoma (ATCC, #HTB-20); MIA PaCa-2 human pancreatic carcinoma [2 copies KRAS(G12C)](ATCC, #CRL-1420); NCI-H23 human non-small cell lung cancer [1 copy KRAS(G12C)](ATCC, #CRL-5800); NCI-H358 human non-small cell lung cancer [1 copy KRAS(G12C)](ATCC, #CRL-5807); LU65A human lung carcinoma (Pharmaron, Beijing, China). Cell lines were cultured essentially according to ATCC and Pharmaron recommendations.
Cancer Cell Line Proliferation (CCK-8) Assays
Cells were plated in 96-well tissue culture plates at 4,000 cells/well and incubated at 37° C./5% CO2 for 24 hr. 3-fold serial dilutions of each test compound were prepared ranging from 20 μM to 1.02 nM. Cells were then treated with test compounds at various concentrations with a final concentration of 0.5% DMSO/well, and then incubated at 37° C./5% CO2 for 72 hr. 10 l the cell proliferation detection reagent CCK-8 (Dojindo Molecular Technologies, #CK04) was added to each well and incubated at 37° C./5% CO2 for 3-4 hr and the absorbance at 450 nm measured using an Perkin Elmer EnVision Plate Reader. Compound inhibition of was determined by the following equation and EC50 values (the concentration at which 50% of the maximal inhibition occurs) calculated using GraphPad Prism 7 software:
% Inhibition=100−(D−B)/(S−B)*100%. • S: Absorbance of cells treated with DMSO • D: Absorbance of compound-treated cells • B: Absorbance of medium with DMSO without cells

[3] = target: T1, HSP90a protein; experiment: HSP90α-binding fluorescent polarization (FP) assay, FITC-geldanamycin probe; settings: read-out: HSP90a binding (FITC); FP competition with FITC-geldanamycin, 5 nM, 120 min at 25° C.
Procedure: as §1, §2

| Compound | IC50 [1] [nM] | EC50 [2] [nM] | IC50 [3] [nM] |
| --- | --- | --- | --- |
| CC(C)c1cc(-c2nnc(O)n2-c2ccc(CN3CCN(CC4CCN(c5nc6c(c(N7CCN(C(=O)C(F)(F)F)[C@@H](CC#N)C7)n5)CCN(c5cccc7cccc(Cl)c57)C6)CC4)CC3)cc2)c(O)cc1O | 100 to 1000 | > 1000 |  |
| CCC(=O)N1CCN(c2nc(OCCC(=O)N3CCC(CN4CCN(Cc5ccc(-n6c(O)nnc6-c6cc(C(C)C)c(O)cc6O)cc5)CC4)CC3)nc3c2CCN(c2cc(O)cc4ccccc24)C3)CC1 |  | 100 to 1000 | < 100 |
| C=C(F)C(=O)N1CCN(c2nc(OC[C@@H]3CCN(C(=O)COc4ccc(Nc5cc(-n6nc(C(F)(F)F)c7c6CC(C)(C)CC7=O)ccc5C(N)=O)cc4)C3)nc3c2CCN(c2cccc4cccc(Cl)c24)C3)C[C@@H]1CC#N | > 1000 | > 1000 |  |
